In all, about 320,000 compounds went through this assay and about 2,100 (0.66%) were called active. Inconclusive results, whose numbers are uncertain, are shown with a selection of clear calls. Calls follow the shape of the dose curve; as a rule, active = well fitted inhibition curve with a large enough effect in the signal ratio, with a control signal flat (not every such curve was filed as active); inconclusive = small, poorly fitted or top-dose-only effect, or effect the other way, or a change in a side signal; inactive = flat fitted curve, though single readings scatter; the % refers to the signal ratio. A potency beside an inconclusive call is a rough fit, not a confirmed value.
test: qHTS Assay for Lipid Storage Modulators in Drosophila S3 Cells; details: BODIPY lipid droplet fluorescence, 18-24 h, cells fed with added oleic acid; lipid storage change, negative = inhibition: at 46.1 µM (top of the series) unless noted
Outline: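 Drosophila S3 cells got compounds at several concentrations plus oleic acid (400 uM solution). Laser-scanning cytometry with 488 nm excitation read lipid droplets at 500-530 nm and cells at 575-640 nm. Percent activity was relative to 20 uM Triacsin C.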
% is scaled to controls: 0 for no effect and ±100 for the full control effect; potency is read from the fitted curve at half-maximal effect.

Row | SMILES | Potency | lipid storage change, negative = inhibition | outcome
1 | Cc1c(-c2ccc(O)cc2)nc2nc(-c3ccccc3)c(-c3ccccc3)nn12 | inconclusive: 25.9 µM [falling, partial curve, poor fit] | – | –
2 | CC(O)[C@H]1CC[C@H]2[C@@H]3CC[C@H]4C[C@H](O)CC[C@]4(C)[C@H]3[C@H](O)C[C@]12C (stereo partly drawn) | – | inconclusive: 9.62% | –
3 | Cc1ccc(S(=O)(=O)CCC(=O)OCC(=O)N(C)CC(=O)Nc2ccc(F)cc2)cc1 | – | inconclusive | –
4 | COc1cc(/C=N/n2c(-c3ccc4c(c3)NC(=O)CO4)csc2=Nc2cccc(C)c2)ccc1O | – | inconclusive: -16.8% | –
5 | O=C(NCCOc1nc(N2CCOCC2)nc(N2CCOCC2)n1)Nc1ccc(Cl)cc1 | inconclusive: 1.64 µM [activator, partial curve, poor fit] | – | –
6 | CCOc1ccccc1-n1c(SCC(=O)NCc2ccco2)nnc1-c1ccncc1 | inconclusive: 20.6 µM [activator, partial curve] | – | –
7 | O=C(NN1CCOCC1)c1cc(-c2ccccc2)nc2ccccc12 | – | inconclusive: 16.5% | –
8 | COc1ccc2oc(C(=O)OC(C)C(=O)NCc3ccccc3)c(C)c2c1 (stereo not drawn) | – | inconclusive: 11.4% | –
9 | CCN(CC)S(=O)(=O)c1ccc(N2CCOCC2)c(NC(=O)c2ccc(N3CCCC3=O)cc2)c1 | inconclusive: 6.51 µM [falling, single point] | – | –
10 | Cc1ccc(-c2cc3ccccc3nc2N)cc1 | inconclusive: 29.1 µM [cytotoxic, single point] | – | –
11 | Cc1n[nH]c(=O)nc1NCCc1ccccc1 | inconclusive: 1.3 µM [falling, full curve, poor fit] | – | –
12 | Cc1nc2ccc(F)cc2cc1C(=O)Nc1ccc(Cl)c(Cl)c1 | inconclusive: 1.84 µM [falling, full curve, poor fit] | – | –
13 | COc1ccccc1CCc1nnc(CCC(=O)NCCCOc2cccnc2)o1 | – | inconclusive: 17% | –
14 | Cc1ccc(N2C(=O)NC(NC(=O)c3ccc(Cl)cc3)(C(F)(F)F)C2=O)cc1 (stereo not drawn) | inconclusive: 20.6 µM [activator, partial curve] | – | –
15 | CC(=O)N/N=C(\N)c1nonc1N | – | inconclusive: 4.21% | –
16 | CC(C)(Oc1ccc(Cl)cc1)C(=O)NCc1n[nH]c(=O)c2ccccc12 | inconclusive: 25.9 µM [falling, single point] | – | –
17 | O=[N+]([O-])c1ccc2c(c1)C(N1CCOCC1)/C(=C/COc1ccc(Cl)cc1Cl)O2 (stereo not drawn) | – | inconclusive: 33.5% | –
18 | COc1cc(C)c(S(=O)(=O)Nc2ccccc2F)cc1C | inconclusive: 3.66 µM [activator, partial curve] | – | –
19 | O=C(c1ccco1)c1cn(CC(=O)N2CCCCC2)c2ccccc12 | inconclusive: 23.1 µM [falling, single point] | – | –
20 | O=C(NCc1ccc2c(c1)OCO2)C1CC(=O)N(CCc2ccc(F)cc2)C1 (stereo not drawn) | – | inconclusive: 1.2% | –
21 | Cc1nc(C)c(-c2csc(Nc3ccc(S(N)(=O)=O)cc3)n2)s1 | inconclusive: 9.2 µM [falling, single point] | – | –
22 | Cn1c(SCc2nnc(-c3ccc(F)cc3)o2)nnc1C1COc2ccccc2O1 (stereo not drawn) | – | inconclusive: -8.87% | –
23 | Cn1c(SCC(=O)NNC(=O)c2ccccc2)nnc1C(F)(F)F | – | inconclusive: 4.46% | –
24 | C/C(=N\NC(=O)c1ccc(Br)cc1)c1cccc(NC(=O)c2cccnc2)c1 | – | inconclusive: -13.5% | –
25 | O=C(c1ccccc1)N1CCN(CC(O)COc2ccc(Br)cc2)CC1 (stereo not drawn) | – | – | inactive [at 46.1 µM]

Row | SMILES | Potency | lipid storage change, negative = inhibition | outcome
26 | O=C(Nc1nc2nccc(-c3ccccc3)n2n1)c1ccc(F)cc1 | – | inconclusive: 43.7% | –
27 | O=C1C=C(c2cccs2)CC(c2cccs2)C1n1cnc([N+](=O)[O-])c1 (stereo not drawn) | – | inconclusive: -33.1% | –
28 | CC1(C)C(=O)Nc2ccccc2N1C(=O)COC(=O)CSc1ccc(Cl)cc1 | – | inconclusive: 18.5% | –
29 | COc1ccc(-c2nnnn2C)cc1S(=O)(=O)Nc1ccc(C)cc1C | inconclusive: 29.1 µM [falling, single point] | – | –
30 | COc1ccc(-c2nc3c4ccccc4[nH]c(=O)n3n2)cc1 | – | inconclusive: 113% | –
31 | COc1ccc(Cl)cc1NC(=O)c1nc2nc(C)cc(C(F)F)n2n1 | inconclusive: 13 µM [activator, single point] | – | –
32 | Cc1ccc(S(=O)(=O)NC(CCc2ccccc2)CC(=O)C(C)(C)C)cc1 (stereo not drawn) | – | inconclusive: -1.19% | –
33 | COc1ccccc1OCCNC(=O)CNC(=O)c1ccc(Cl)c(Cl)c1 | – | inconclusive: 35.8% | –
34 | CN1CCN(/N=C2/C(=O)Nc3ccc([N+](=O)[O-])cc32)CC1 | – | inconclusive: 5.96% | –
35 | CC1CN(C(=O)C(C)N2C(=O)c3ccccc3C2=O)CC(C)O1 (stereo not drawn) | – | inconclusive: -33.6% | –
36 | CC(Sc1nnc(CNC(=O)c2ccccc2F)n1C)C(=O)Nc1nccs1 (stereo not drawn) | – | inconclusive: -56.1% | –
37 | O=C(Cc1cccc2ccccc12)N1CCCc2ccccc21 | – | inconclusive: 5.2% | –
38 | CCc1ccccc1NC(=O)CN(C)C(=O)COc1ccc(C)nc1[N+](=O)[O-] | – | inconclusive: 25.1% | –
39 | O=S(=O)(c1ccc(F)cc1)N1CCCC1 | – | inconclusive: -3.29% | –
40 | CCN(CC(=O)NCc1cccs1)C(=O)c1ccc(S(=O)(=O)Nc2ccccc2F)cc1 | – | inconclusive | –
41 | CCCn1c(SCC(=O)Nc2ccc3c(c2)OCO3)nc2c1c(=O)n(C)c(=O)n2C | inconclusive: 1.3 µM [activator, full curve] | – | –
42 | CSc1nnc(N(CCC#N)CCC#N)s1 | – | inconclusive: -5.09% | –
43 | COc1cc(/C=C2\SC(=S)N(CC(=O)NC(C)(C)C)C2=O)cc(OC)c1OC | – | inconclusive: 12.8% | –
44 | C#CCOCCOCCOCCNc1nc(N2CCN(C(=O)[C@H](Cc3cc4ccccc4[nH]3)n3cc([C@@H](N)CC(C)C)nn3)CC2)nc(N2CCN(C(=O)[C@H](Cc3cc4ccccc4[nH]3)n3cc([C@@H](N)CC(C)C)nn3)CC2)n1 | inconclusive: 29.1 µM [falling, single point] | – | –
45 | Cc1nc(Cc2nnc(SCc3nc(N)nc(Nc4ccccc4C)n3)o2)cs1 | inconclusive: 0.0651 µM [activator, full curve, poor fit] | – | –
46 | CCOc1ccc(/C=N/NC(=O)c2[nH]c3ccc(C)cc3c2C)cc1 | inconclusive: 20.6 µM [activator, single point] | – | –
47 | CCOCCn1ccc2c(OCC(=O)Nc3ccc(OC)cc3OC)cccc2c1=O | – | inconclusive: 16.3% | –
48 | O=C(/C=C/c1ccccn1)c1ccc(Br)cc1O | inconclusive: 0.517 µM [activator, full curve, poor fit] | – | –
49 | COc1ccc(Br)cc1CNC(=O)CN1C(=O)C(c2ccccc2)Oc2cccnc21 (stereo not drawn) | inconclusive: 18.4 µM [falling, single point] | – | –
50 | CCCCN(C)CCCNC(=O)CC1Oc2ccccc2NC1=O (stereo not drawn) | – | inconclusive: -11.1% | –

Exported as labelled records: part of the list above
CN1CCN(/N=C2/C(=O)Nc3ccc([N+](=O)[O-])cc32)CC1
  lipid storage change, negative = inhibition: inconclusive: 5.96%
O=C(/C=C/c1ccccn1)c1ccc(Br)cc1O
  Potency: inconclusive: 0.517 µM [activator, full curve, poor fit]
CCCCN(C)CCCNC(=O)CC1Oc2ccccc2NC1=O (stereo not drawn)
  lipid storage change, negative = inhibition: inconclusive: -11.1%

Following part

Row | SMILES | Potency | lipid storage change, negative = inhibition | outcome
51 | Cc1ccc(OCCNC(=O)c2ccc3ccccc3n2)cc1 | inconclusive: 5.8 µM [falling, single point] | – | –
52 | COc1ccc(CN2CCn3nc(C(=O)NC4CC4)cc3C2=O)cc1 | – | inconclusive: 6.13% [at 9.22 µM] | –
53 | O=C(CN1CCSCC1)N/N=C/c1ccc(F)c(F)c1 | – | inconclusive: -26.2% | –
54 | Cc1ccc(C#N)c(SCc2ccccc2F)n1 | – | inconclusive: 12% | –
55 | CCC(=O)NNc1ncnc2ccccc12 | – | inconclusive: 16% | –
56 | CS(=O)(=O)C1=NN2C(=N)/C(=C\c3ccc(OCCOc4ccccc4)cc3)C(=O)N=C2S1 | inconclusive: 8.2 µM [activator, single point] | – | –
57 | CN(C)c1ccnc2sc3c(=O)n(Cc4ccccc4)cnc3c12 | – | inconclusive: 14.2% | –
58 | O=C(CCN1C(=O)c2ccccc2C1=O)NCc1ccc(Cl)cc1 | inconclusive: 0.58 µM [activator, single point] | – | –
59 | O=C(Nc1ccc(OC(F)F)cc1)c1ncc(Cl)c(Cl)c1Cl | – | – | inactive [at 46.1 µM]
60 | COc1ccc(CNC(=O)c2[nH]c(C)c(C(C)=O)c2C)cc1 | – | inconclusive: -190% | –
61 | Cc1c(/C=N/NC(=O)COc2ccccc2[N+](=O)[O-])c2ccccc2n1C | – | inconclusive: 23.8% | –
62 | Cc1c(Nc2c3ccccc3nc3ccccc23)c(=O)n(-c2ccccc2)n1C | inconclusive: 32.6 µM [cytotoxic, single point] | – | –
63 | Oc1ccc(C[C@H]2CNCCN2CCc2cccc3ccccc23)cc1 | – | inconclusive: 84.4% | –
64 | COC(=O)c1sccc1NC(=S)N1CCN(c2ccc(F)cc2)CC1 | – | inconclusive: 25.8% | –
65 | CC(/C=C/c1ccc2c(c1)OCO2)=N/NC(=O)C1COc2ccccc2O1 (stereo not drawn) | inconclusive: 0.0046 µM [activator, full curve, poor fit] | – | –
66 | Oc1ccc(/C=C/c2ccnc3ccccc23)cc1 | – | inconclusive: -0.402% | –
67 | CCOc1ccc(S(=O)(=O)NCc2ccc(Cl)cc2)c2cccnc12 | – | inconclusive: 14.2% | –
68 | CSCC[C@H](NC(=O)N1CCn2c1nc1ccccc12)C(=O)NCC1CCCO1 (stereo partly drawn) | – | inconclusive: 2.51% | –
69 | COc1ccc(S(=O)(=O)N(Cc2cc3ccc(OC)cc3[nH]c2=O)CC2COCCO2)cc1 (stereo not drawn) | – | inconclusive: -33.3% | –
70 | CCCNS(=O)(=O)c1ccc(OCC(=O)NCc2ccc3c(c2)OCO3)cc1 | inconclusive: 6.51 µM [activator, single point] | – | –
71 | CCCCN(C)CCNC(=O)C1CCN(S(=O)(=O)c2cccc3nsnc23)CC1 | – | inconclusive: 18.7% | –
72 | Cc1c(Cl)cccc1N(CC(=O)N1CCCCCC1)S(C)(=O)=O | – | inconclusive: -3.97% | –
73 | O=C(OCC(=O)N1CCc2ccccc21)c1ccccc1F | inconclusive: 0.326 µM [falling, single point] | – | –
